Measured values: PubChem BioAssay AID2685 (National Center for Advancing Translational Sciences (NCATS), 2010)
The campaign covered roughly 320,000 compounds. About 2,100 (0.66%) were called active. This list was built around the results that the source calls inconclusive (neither active nor inactive); the mix of calls is not that of the screen. The call rests on the fitted dose curve; in most records, active means well fitted inhibition curve with a large enough effect in the signal ratio, with a control signal flat (not every such curve was filed as active); inconclusive means small, poorly fitted or top-dose-only effect, or effect the other way, or a change in a side signal; inactive means flat fitted curve, though single readings scatter; the % refers to the signal ratio. Potencies of inconclusive entries are doubtful fits and often do not repeat.

test: qHTS Assay for Lipid Storage Modulators in Drosophila S3 Cells; settings: BODIPY lipid droplet fluorescence, 18-24 h, cells fed with added oleic acid; lipid storage change, negative = inhibition: at 46.1 µM (top of the series) unless noted
Method in brief: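 Drosophila S3 cells got compounds at several concentrations plus oleic acid (400 uM solution). Laser-scanning cytometry with 488 nm excitation read lipid droplets at 500-530 nm and cells at 575-640 nm. Percent activity was relative to 20 uM Triacsin C.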
On the % scale 0 is the no-effect control and ±100 the full control effect; potency means the concentration at half of the fitted maximal effect.

Structure (SMILES)	lipid storage change, negative = inhibition	Potency
O=C(c1cc2ccccc2o1)N1CCN=C1SCc1cccnc1	inconclusive: 19.1%	–
Cc1nc2ccc([N+](=O)[O-])cc2s1	inconclusive: 19.2%	–
CN(C)S(=O)(=O)c1cccc(C(=O)Nc2ccccc2)c1	inconclusive: 0.0185%	–
COc1cccc(CN2CCNC(=O)C2CC(=O)NC2Cc3ccccc3C2)c1 (stereo not drawn)	inconclusive: -12.1%	–
O=S(=O)(c1ccccc1)c1cnc(-c2ccccc2)nc1N1CCCCC1	inconclusive: 13.4%	–
CN1C(=O)[C@@H]2[C@H](C1=O)[C@@H]1C(=O)Nc3ccccc3C(=O)N1[C@@H]2c1ccc(Br)cc1	inconclusive: 14.2%	–
O=C(NC1CCCN(C2Cc3ccccc3C2)C1)c1ccc(F)cc1Cl (stereo not drawn)	inconclusive: 4.14%	–
C=CCN1CC(=O)N2Cc3[nH]c4ccccc4c3C[C@H]2C1=O	inconclusive: -41.4%	–
Nc1c(-c2ccc(F)cc2)cnn1C1CCS(=O)(=O)C1 (stereo not drawn)	–	inconclusive: 1.64 µM [falling, partial curve]
COc1ccc(-c2nnc3c4ccccc4c(C)nn23)cc1	–	inconclusive: 0.461 µM [activator, full curve]
CCC(=O)N1CCc2cc(S(=O)(=O)Nc3ccc4c(c3)OCCO4)ccc21	inconclusive: 178%	–
N#Cc1c(NC(=O)CSc2ncn[nH]2)sc2c1CCCC2	inconclusive: 365%	–
Cc1nc(N2CCN(c3ccccc3)CC2)[nH]c(=O)c1Cc1cccc2ccccc12	inconclusive: 123%	–
Cc1ccc(N2CC(O)Cn3c2nc2c3c(=O)[nH]c(=O)n2C)cc1 (stereo not drawn)	inconclusive: -35.2%	–
Cc1ccc(-n2ncc3c(NNC(=O)c4ccco4)ncnc32)cc1Cl	–	inconclusive: 29.1 µM [falling, single point]
COc1ccccc1CC(=O)Nc1ccc(-c2noc(COc3cccc(C)c3C)n2)cc1	inconclusive: -18%	–
c1ccc2c(c1)nnn1c3ccccc3nc21	–	inconclusive: 0.58 µM [activator, partial curve, poor fit]
CCN(C(=O)COC(=O)c1cccnc1SC)C1CCS(=O)(=O)C1 (stereo not drawn)	–	inconclusive: 0.13 µM [falling, full curve, poor fit]
COc1ccc(NC(=O)CSc2nnc(C)n2C2CC2)cc1S(=O)(=O)N1CCOCC1	inconclusive: -7%	–
COC(=O)[C@@H]1C(c2ccccc2)(c2ccccc2)[C@@]1(C)C(=O)OC	inconclusive: -15.5%	–
Cc1ccc2[nH]c(C)c(/C=N/Nc3nc4ccccc4s3)c2c1	inconclusive: -3.25%	–
CCOCCCn1c(SCC(=O)NCc2ccco2)nc2c(sc3ccccc32)c1=O	inconclusive: -15.2%	–
Cc1cc2c(cc1S(=O)(=O)CCC(=O)NCCc1ccccc1)OCC(=O)N2	inconclusive: -21.9%	–
COc1ccccc1CNS(=O)(=O)c1cc(CN2C(=O)c3cccnc3C2=O)ccc1OC	–	inconclusive: 2.06 µM [falling, partial curve, poor fit]

Structure (SMILES)	lipid storage change, negative = inhibition	Potency
COc1cc(OC)cc(C(=O)N[C@H](C(=O)OCC(=O)Nc2ccc(C)cc2C)C(C)C)c1	–	inconclusive: 2.59 µM [rising, partial curve]
COc1ccc(NC(=O)CN2CCc3ccccc3C2)c([N+](=O)[O-])c1	inconclusive: -32.8%	–
Cc1ccc(S(=O)(=O)N(C)c2nonc2C)cc1	inconclusive: -37.1%	–
CC(C)(C)c1ccc(/C=C/C(=O)Nc2cccnc2)cc1	inconclusive: -8.92%	–
Cc1ccccc1OCC(=O)OCC(=O)Nc1ccc(S(N)(=O)=O)cc1	–	inconclusive: 6.51 µM [falling, single point]
CC(=O)Oc1cccc(N2C(=O)c3ccccc3C2=O)c1	inconclusive: -3.67%	–
CN1CC[C@]23c4ccccc4N[C@H]1[C@]21CCN(C)[C@H]3Nc2ccccc21	inconclusive: 12.2%	–
CCOc1ccc2nc(NC(=O)C(CC)Sc3nc(C)cc(=O)[nH]3)sc2c1 (stereo not drawn)	inconclusive: 110%	–
O=C(NCC(O)c1ccccc1)c1ccc(Cl)c(S(=O)(=O)N2CCCCC2)c1 (stereo not drawn)	–	inconclusive: 10 µM [falling, partial curve]
O=C(NCc1ccccc1F)C1CCCN1S(=O)(=O)c1ccc(F)cc1 (stereo not drawn)	–	inconclusive: 20.6 µM [falling, single point]
COc1ccc(N=C2C(=Nc3ccc(OC)cc3)N(c3ccccc3)C(=S)N2C(=O)c2ccc(Cl)cc2)cc1	–	inconclusive: 0.58 µM [cytotoxic, full curve]
COc1ccc(N=C2CC(C)(C)CC(=O)/C2=C(/O)c2ccccc2)cc1	inconclusive: 100%	–
CCCc1ccc(-c2cc(NC(=O)CSc3nnc(N)s3)n(-c3ccccc3)n2)cc1	–	inconclusive: 13 µM [falling, partial curve]
CCOC(=O)c1[nH]c2ccc(C)cc2c1N=CN(CC)CC	inconclusive: -8.79%	–
O=C(NC1(C(F)(F)F)C(=O)Nc2c1c(=O)[nH]c(=O)n2Cc1ccccc1)c1ccco1 (stereo not drawn)	inconclusive: -0.516%	–
O=C(Nc1ccc(-n2cccn2)cc1)C1CCN(Cc2ccccn2)CC1	–	inconclusive: 0.58 µM [activator, single point]
O=C(Nc1ccccc1Cl)Nn1cnnc1	–	inconclusive: 29.1 µM [activator, single point]
COc1ccc(C(=O)CSc2nnc3n2CCCN3C(=O)Nc2ccccc2)cc1	inconclusive: -27.1%	–
CCOC(=O)c1ccc2c(c1)nc(-c1ccccn1)n2CC	inconclusive: -53%	–
CCOC(=O)N1CCN(C(=O)Cc2c(C(=O)O)n(C)c3ccccc23)CC1	inconclusive: 6%	–
COc1ccc(CC(=O)Nc2nncs2)cc1OC	inconclusive: 2.57%	–
COc1ccc(OC)c(C(=O)/C=C/c2ccccc2C(F)(F)F)c1	–	inconclusive: 16.4 µM [falling, single point]
O=C(NNc1ccccc1)C(=O)NNS(=O)(=O)c1ccc(CCCl)cc1	–	inconclusive: 0.146 µM [falling, full curve, poor fit]
O=C1OC(=O)c2c(Br)c(Br)c(Br)c(Br)c21	inconclusive: -13.8%	–

Ordered by SMILES length (low to high): some entries from above.
Structure (SMILES)	lipid storage change, negative = inhibition	Potency
Nc1c(-c2ccc(F)cc2)cnn1C1CCS(=O)(=O)C1 (stereo not drawn)	–	inconclusive: 1.64 µM [falling, partial curve]
O=C(NCC(O)c1ccccc1)c1ccc(Cl)c(S(=O)(=O)N2CCCCC2)c1 (stereo not drawn)	–	inconclusive: 10 µM [falling, partial curve]
COc1ccc(NC(=O)CSc2nnc(C)n2C2CC2)cc1S(=O)(=O)N1CCOCC1	inconclusive: -7%	–
